In PubChem BioAssay AID493014 (National Center for Advancing Translational Sciences (NCATS), 2011):
Some of the results follow. These are further read-outs of the screen, such as a control signal, another cell line or another target. No call is given for them. Most of these compounds were active or inconclusive in the main read-out, so they are no random draw. Potencies come from curve fits of mixed quality, noted in brackets.

Experiment: qHTS Assay to Find Inhibitors of Chronic Active B-Cell Receptor Signaling
Conditions: ABC-DLBCL IkBa-CBG/CBR reporter, luminescence ratio (green luciferase fused to IkBa over red control in TMD8 lymphoma cells), 4 h
Summary of the method: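 TMD8 ABC-DLBCL cells carrying doxycycline-inducible green luciferase fused to IkappaBalpha plus unfused red luciferase were exposed to compounds (up to 46 uM) for 4 hrs at 37C. Activity came from the overlap-corrected green/red luminescence ratio.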

[1] = measured here: CBR red luminescence, cell number
[2] = measured here: IkBa-CBG green luminescence

Structure (SMILES)	AC50 [1]	AC50 [2]
CCN(CC)c1ccc(N=Nc2ncn[nH]2)cc1	14.1 µM [rising, partial curve, poor fit]	
O=C(Nc1sc2c(c1-c1nc3ccccc3[nH]1)CCCC2)C1CCCC1	11.2 µM [falling, partial curve, poor fit]	
COc1cccc(/C=N/NC(=O)c2cccc(N3CCCC3=O)c2)c1	11.2 µM [falling, partial curve]	
COc1ccccc1OCCNC1CCCC1	0.0731 µM [falling, full curve, poor fit]	
Cn1c2ccccc2c2c(C(=O)O)cn(C3CCCC3)c(=O)c21	29.1 µM [falling, single point]	
Cc1ccc(C)c(NC(=O)C2CCN(C(=O)c3cccs3)CC2)c1	7.94 µM [rising, partial curve]	
Cc1cccc(NC(=O)/C=C/c2ccc([N+](=O)[O-])s2)c1	3.66 µM [falling, partial curve]	
CCCn1c2ccccc2c2cnn(CC(=O)N(CC)CC)c(=O)c21	3.55 µM [rising, full curve, poor fit]	
N=C1SCC(=O)N1c1ncc(Cc2ccc(F)cc2)s1	3.16 µM [rising, partial curve, poor fit]	4.47 µM [falling, single point]
CCCn1c(=N)n(CC(=O)c2ccc([N+](=O)[O-])cc2)c2ccccc21	3.98 µM [rising, single point]	
CC(=O)NC1C(c2nc3ccccc3s2)=C(c2ccccc2)C(=O)N1c1ccc(C)cc1 (stereo unspecified)	0.411 µM [rising, full curve, poor fit]	
O=C(NNC(=S)Nc1ccccc1)c1ccncc1	8.91 µM [falling, partial curve]	
CCOc1ccc2ccccc2c1C(=O)NCC(c1ccc(N(C)C)cc1)N(C)C (stereo unspecified)	2.82 µM [rising, partial curve, poor fit]	
Cn1ccs/c1=N\C(=O)Nc1cccc(C(F)(F)F)c1	35.5 µM [falling, single point]	
O=C(Nc1cccn(Cc2cccc(F)c2)c1=O)NC1CCCCC1	35.5 µM [falling, single point]	
Brc1ccc(-c2csc(N3CCCCCC3)n2)cc1	0.708 µM [falling, full curve, poor fit]	
O=C1CCc2ccc(NS(=O)(=O)c3ccc(F)cc3)cc2N1	20 µM [falling, single point]	
Cc1ccccc1CSCCNC(=O)Nc1ccccc1	35.5 µM [falling, single point]	
Clc1ccc(OCCn2cnc3ccccc32)c(Cl)c1	1.64 µM [rising, partial curve, poor fit]	
N/C(COc1cccc(C(F)(F)F)c1)=N\NC(=O)c1cccnc1Oc1ccccc1	35.5 µM [falling, single point]	
Cc1ccc(NS(=O)(=O)c2cccc(C(=O)NCCc3c[nH]c4ccccc34)c2)c(C)c1	20.6 µM [falling, single point]	

Structure (SMILES)	AC50 [1]	AC50 [2]
CCC(=O)NC(c1ccc(Cl)cc1Cl)c1ccc2cccnc2c1O (stereo unspecified)	20 µM [falling, partial curve]	
CN(C)C(=O)Cn1c(SCC(=O)NCc2ccc3c(c2)OCO3)nc2ccccc21	0.0231 µM [rising, full curve, poor fit]	
COc1ccc(NC(=O)C(=O)N/N=C(\C)CC(=O)Nc2ccccn2)c(OC)c1	8.91 µM [falling, partial curve, poor fit]	
C/C(=N\OCc1ccccc1C#N)c1cc2ccccc2o1	1.26 µM [rising, full curve, poor fit]	
Cc1cc(C(=O)C(C)OC(=O)c2cnccn2)c(C)n1-c1ccccc1 (stereo unspecified)	29.1 µM [falling, single point]	
COc1ccc(/C=C/C(=O)Nc2ccccc2C(=O)N2CCCC2)cc1	11.2 µM [falling, single point]	
O=C(Nc1cccc(S(=O)(=O)N2CCCCC2)c1)c1cncc(Br)c1	5.8 µM [falling, single point]	
O=C(CSc1ccc(Cl)cc1)Nc1ccc(C2SCCS2)cc1	12.6 µM [rising, partial curve, poor fit]	
CC(=O)Oc1ccc(C(=O)Nc2ccccc2C(=O)N2CCCC2)cc1	35.5 µM [falling, single point]	
COc1cccc(-c2csc(N3CCN(CC(=O)NNC(=O)c4ccco4)CC3)n2)c1	5.62 µM [rising, single point]	
COc1ccc(C(=O)OCc2csc(C)n2)c(O)c1	0.316 µM [rising, full curve, poor fit]	
Cc1sc2nc(CN3CCN(S(=O)(=O)c4cccc5nonc45)CC3)[nH]c(=O)c2c1C	0.103 µM [rising, partial curve, poor fit]	
O=C(O)CCCn1c(O)c(C=C2N=c3ccccc3=N2)sc1=S	0.316 µM [falling, full curve, poor fit]	
Cn1c(SCC(=O)Nc2ccccc2Oc2ccccc2)nnc1C1CC1	23.1 µM [rising, partial curve, poor fit]	
COCCCNC(=O)c1c(N)n(/N=C/c2ccccn2)c2nc3ccccc3nc12	11.2 µM [falling, partial curve]	
O=c1cc(-c2ccc(O)c(O)c2)oc2c1ccc1ccccc12	2.59 µM [falling, partial curve, poor fit]	
Cc1ccc(NS(=O)(=O)c2ccc(NC(=O)C(C)Sc3ccc(Cl)cc3)cc2)c(C)c1 (stereo unspecified)	29.1 µM [falling, partial curve]	25.9 µM [rising, single point]
CCc1ccc(C(=O)Nc2cc(C)ccc2F)s1	12.6 µM [falling, partial curve]	
CC1CCN(C(C(=O)O)c2ccccc2)CC1 (stereo unspecified)	6.31 µM [rising, partial curve, poor fit]	
COc1ccc(NC(C)=O)cc1NS(=O)(=O)c1ccc2c(c1)OCCO2	32.6 µM [rising, partial curve, poor fit]	
COC(=O)c1n[nH]n(-c2cc(Cl)cc(Cl)c2)c1=O	10 µM [falling, single point]	

Structure (SMILES)	AC50 [1]	AC50 [2]
O=C(c1cc2ccccc2o1)c1nc2c(n1O)CCCCC2	3.26 µM [falling, partial curve, poor fit]	
O=C(Nc1ccc(Br)cn1)c1ccc(Br)s1	11.2 µM [falling, single point]	
CCOc1ccc(C(=O)C(CCC(CN(C)C)C(=O)c2ccc(OCC)cc2)CN(C)C)cc1 (stereo unspecified)	1.3 µM [falling, full curve]	11.6 µM [rising, partial curve, poor fit]
CCC(NC(=O)c1ccccc1NC(=O)c1ccccc1)C(=O)OC (stereo unspecified)	15.8 µM [falling, partial curve, poor fit]	
Cc1cc2nc3c(nc2cc1C)CCCC3	10 µM [rising, partial curve, poor fit]	
COC(=O)C(NC(C)=O)(Nc1ccc(Br)cc1)C(=O)OC	6.31 µM [rising, partial curve, poor fit]	
COc1ccc(N(CC(=O)Nc2cccc(OC)c2)S(=O)(=O)c2c(C)nn(C)c2C)cc1	1.78 µM [falling, partial curve]	
COc1ccccc1NC(=O)Nc1nc(CC(=O)Nc2ccc(OC)c(OC)c2)cs1	0.461 µM [rising, partial curve, poor fit]	
O=C(C1COc2ccccc2O1)N1CCc2ccccc2C1 (stereo unspecified)	7.31 µM [rising, partial curve, poor fit]	
COc1cc(/C(C)=N/NC(=S)NC(C)C)cc(OC)c1OC	16.4 µM [falling, partial curve, poor fit]	20.6 µM [falling, partial curve, poor fit]
COc1ccc(S(N)(=O)=O)cc1C(=O)OCC(=O)Nc1sccc1C#N	14.6 µM [rising, partial curve]	
CC(C)OC(=O)C(C(=O)C(F)(F)F)c1cc(NS(=O)(=O)c2ccc3ccccc3c2)c2ccccc2c1O (stereo unspecified)	0.92 µM [falling, full curve]	
COc1ccc(C(=O)CC(=O)c2ccccc2O)cc1	3.55 µM [rising, partial curve, poor fit]	
CCN(CC)CCNC(=O)c1ccc2c(c1)ncn2C1CCCCC1	14.1 µM [rising, single point]	
O=c1/c(=C/c2ccc([N+](=O)[O-])cc2)sc2n1CCCN=2	14.1 µM [falling, single point]	
Cc1cc(C)c2cc(CN(CCO)Cc3nnnn3Cc3ccccc3)c(=O)[nH]c2c1	35.5 µM [falling, single point]	
Cc1cccc(NC(=O)c2ccccc2NC(=O)Cc2ccccc2)c1C	15.8 µM [falling, single point]	
O=C(NC1CCCCC1)c1cc2nc3c(c(C(F)(F)F)n2n1)CCCC3	3.26 µM [rising, partial curve, poor fit]	
CC[C@]12c3[nH]c4cc(CCC(=O)N(C)C)ccc4c3CCN1C(=O)[C@@H](CC(=O)NC/C=C(\C)CCC=C(C)C)C[C@@H]2C(=O)N1CCN(C(=O)C2CC2)CC1		23.1 µM [falling, partial curve, poor fit]
O/N=C(/CCc1ccccc1)c1ccc2c(c1)OCCO2	3.98 µM [rising, partial curve]	
